From patent US20160169913A1
No constants are given. Whether binding was seen depends on the method and setting. Some binding calls cover weakened binding; strength is not graded here.

The chains behind the UniProt entries cited, without tags or fusion partners. Residues count along the entry.
UniProt P05067, residues 672-713: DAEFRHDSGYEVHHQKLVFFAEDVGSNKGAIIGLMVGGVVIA

Tests used:
Aβ oligomer [1] = biological target: Aβ oligomer (UniProt P05067); experiment: PLISA compared with ELISA, O.D. against Aβ oligomer concentration
Aβ oligomer [2] = biological target: Aβ oligomer (UniProt P05067); experiment: PLISA in buffer or 10% CSF, signal ratio of monomer or fiber to oligomer
Aβ oligomer [3] = biological target: Aβ oligomer (UniProt P05067); experiment: PLISA in buffer and 10% CSF, signal ratio of monomer or fiber to oligomer
Aβ oligomer [4] = biological target: Aβ oligomer (UniProt P05067); experiment: PLISA dose response, Aβ oligomer in solution

Measured: binding

KLVFFAEDVGSNKHAIIELMKGLVPRGSGK (biotin labeled with thrombin site linker at C-terminus (Table 1)) [peptide probe AD317 (P22, biotin labeled with thrombin site linker, at C-terminus)]
binds: all assays above
